The list shows a part of the results. Shown are side measurements of this screen, not its main read-out; they come without a call. Most of these compounds were active or inconclusive in the main read-out, so they are no random draw. Potencies come from curve fits of mixed quality, noted in brackets.

A short description of the experiment: qHTS Assay for Lipid Storage Modulators in Drosophila S3 Cells.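 For cell number change: cells counted by Cell Tracker Red CMTPX staining in the red channel.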 Particulars: BODIPY lipid droplet fluorescence, 18-24 h; for cell number change: measured here: cell count max response, cells fed with added oleic acid. A digest of the protocol:
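Drosophila S3 cells loaded with oleic acid (400 uM, as added) and compounds at several concentrations; lipid droplets imaged by 488-nm laser-scanning cytometry, 500–530 nm intensity and object ratio to cell channel. Percent activity normalized to 20 uM Triacsin C.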

[1] abbreviates: measured here: cell number channel AC50, cells fed with added oleic acid.
[2] abbreviates: measured here: lipid fluorescence (Fed channel) AC50, cells fed with added oleic acid.

As for `O=C(NCc1ccccn1)C(=O)NCC(c1ccco1)N1CCOCC1` (stereo not given), the cell number change was -47.8%. The concentration at half-maximal activity (AC50) under setting [1] was 92 nM [falling, full curve, poor fit]. Besides, the AC50 under setting [2] is 920 nM [falling, full curve, poor fit]. As for `NC(=O)NC(CC(=O)N1CCc2ccccc2C1)c1ccc(Cl)cc1` (stereo not given), the cell number change stood at 1.61%. In addition, under setting [2], the AC50 was 9200 nM [falling, partial curve]. For the compound `CCN1CCN(C(=S)Nc2ccc([N+](=O)[O-])cc2)CC1`, the concentration at half-maximal activity (AC50) under setting [2] is 651 nM [falling, full curve, poor fit]. On to `CC1CC(=O)c2cnc(Nc3ccccc3)nc2C1` (stereo not given), for which the cell number change was -1.84%. The AC50 under setting [2] is 29100 nM [rising, single point]. Turning to `C=CCn1c(=S)[nH]c2cc(C(=O)N3CCN(c4ccccc4OC)CC3)ccc2c1=O`, the cell number change is -7.72%. For the compound `c1ccc(CCNc2nc(-c3ccccn3)nc3ccccc23)cc1`, the cell number change was -68.8%. Moreover, under setting [1], the AC50 is 16400 nM [falling, single point]. Also, the concentration at half-maximal activity (AC50) under setting [2] is 16400 nM [falling, partial curve]. Turning to `Cc1ccc(S(=O)(=O)N(C)C)cc1NC(=O)c1sccc1Cl`, the cell number change was determined as 16.6%. Further, the AC50 under setting [2] is 2060 nM [rising, partial curve, poor fit].

`CCOC(=O)c1cnc2cc(-c3ccc(Br)cc3)nn2c1C`: the cell number change was determined as 23%. For the same compound, under setting [2], the AC50 was 1840 nM [rising, partial curve, poor fit].

For the compound `CSC1=NCCN1C(=O)C12CC3CC(CC(C3)C1)C2`, the AC50 under setting [2] was 2310 nM [falling, full curve]. In the case of `COc1ccc(CCNC(=O)CO/N=C/c2cc3c(cc2Br)OCO3)cc1OC`, the cell number change is -5.19%. The AC50 under setting [2] was 130 nM [falling, full curve, poor fit].

For the compound `Cc1cccc(C(=O)Nc2cccc(C(=O)N/N=C/c3ccc4c(c3)OCO4)c2)c1`, the cell number change is -7.14%. Still for that read-out and setting: the figure for `Cc1cc(C(=O)O)sc1C` is -4.02%. Take `COc1ccc(C(=O)NNS(=O)(=O)c2ccccc2)cc1OC`: the cell number change turned out to be 17.9%. Further, the AC50 under setting [2] was 29100 nM [rising, single point]. As for `CCCC(=O)NC(=S)Nc1ccccc1N1CCOCC1`, the cell number change was 7.21%. Also, the AC50 under setting [1] is 6510 nM [rising, single point]. Besides, under setting [2], the AC50 is 29100 nM [falling, single point].

For the compound `COCCN(C(=O)CNC(=O)c1ccco1)C(C(=O)NC1CCCC1)c1ccc(F)cc1` (stereo not given), the cell number change was determined as 6.67%. Moreover, under setting [1], the AC50 was 51.7 nM [rising, full curve].

As for `O=C(O)c1cc(N2C(=O)C3C4C=CC(C4)C3C2=O)ccc1NCc1cccnc1` (stereo not given), the concentration at half-maximal activity (AC50) under setting [1] was 731 nM [falling, single point]. Regarding `CC(C)[C@H](NC(=O)[C@H](Cc1ccccc1)n1c(=O)[nH]c2ccccc2c1=O)C(=O)N1CCC[C@@H]1C(=O)O`, the cell number change turned out to be 1.94%.

The record behind these values is PubChem BioAssay AID2685 (National Center for Advancing Translational Sciences (NCATS), 2010).
